Assay results taken from publication PMC3089606, “The E. coli Anti-Sigma Factor Rsd: Studies on the Specificity and Regulation of Its Expression” (PLoS ONE, 2011).
Results are given in words; binding and its absence hold for the method and conditions named. Some results given as binding are weak or reduced against the parent protein; the word gives no strength.

By UniProt entry, the sequences of proteins in these tests, tags left out.
UniProt P13445: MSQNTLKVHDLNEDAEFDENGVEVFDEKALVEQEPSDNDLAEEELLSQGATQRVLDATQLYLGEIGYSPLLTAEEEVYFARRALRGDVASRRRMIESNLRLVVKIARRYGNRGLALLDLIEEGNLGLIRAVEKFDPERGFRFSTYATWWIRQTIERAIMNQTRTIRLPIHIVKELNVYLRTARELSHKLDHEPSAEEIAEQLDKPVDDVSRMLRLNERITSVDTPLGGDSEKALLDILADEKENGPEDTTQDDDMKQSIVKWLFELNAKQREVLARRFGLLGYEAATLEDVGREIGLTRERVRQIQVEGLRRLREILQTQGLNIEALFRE

Biological target: T1, Rsd (regulator of sigma D), native protein (E. coli) (UniProt P0AFX4)
T1 sequence: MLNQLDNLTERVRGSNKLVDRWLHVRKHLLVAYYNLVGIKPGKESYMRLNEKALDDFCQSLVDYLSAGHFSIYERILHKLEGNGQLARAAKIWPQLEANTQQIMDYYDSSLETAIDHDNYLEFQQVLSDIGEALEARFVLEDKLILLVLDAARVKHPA
Experiment: cross-linking; 3 µg Rsd with 3 µg σ^70, σ^38 or Rsd (or each protein alone), 30 minutes in 15 µl 50 mM HEPES pH 7.4, 5% glycerol, 0.1 mM EDTA, 0.1 mM DTT; 0.02% glutaraldehyde, room temperature 30 minutes; SDS gel, Coomassie staining; both purified

binding: binds weakly
Substance: RNA polymerase sigma factor σ^38 (from UniProt P13445 1-330)
